# System: translocator protein (TSPO)
# Assay: Dynamic [^18F]GE-180 brain PET with arterial input; 1TC, 2TC and Logan kinetic modelling
# Assay type: in vivo, human
# Description: PET studies were performed on a Biograph 6 (six-slice CT) scanner after administration of 182 ± 3.1 MBq via intravenous bolus injection over 10 s followed by a 10-mL saline flush. A low-dose CT scan preceded the PET acquisition to allow correction for tissue attenuation. Emission data were then acquired over 90 min in list mode and reconstructed as 24 temporal frames (6 × 15, 3 × 60, 5 × 120, 5 × 300, 5 × 600 s) using filtered back-projection (matrix size 168 × 168, zoom 2.6, 5-mm gaussian filter, pixel size 1.56 × 1.56, slice thickness 3 mm) with and without attenuation correction. Standard corrections for scatter, decay and random counts were applied.
# We used the PET data analysis and kinetic modelling toolkit, MIAKAT™ (www.miakat.org), which incorporates software from SPM5 (Wellcome Trust Centre for Neuroimaging) and FSL (FMRIB, University of Oxford). The brain was initially extracted from the T1-weighted MR images. The CIC neuroanatomical atlas was nonlinearly registered to the individual’s extracted brain in order to generate a personalized set of anatomically parcellated regions. […]
# Datasets were analysed with a one-tissue compartment (1TC) model and a two-tissue compartment (2TC) model and the Logan graphical method, using the metabolite-corrected plasma input function as previously described with a fixed 5 % blood volume correction. […]
structure (smiles),measurement,setting,value
CCN(CC)C(=O)[C@H]1CCCc2c1c1c(OC)cccc1n2CC[18F] [[^18F]GE-180],time stability of VT,"2TC model, 40 to 90 min windows in 10-min increments",increasing VT for each successive time window
same,difference in VT between HABs and MABs,across all ROIs,no significant differences

# Source: publication PMC5047949, “Kinetic analysis of the translocator protein positron emission tomography ligand [^18F]GE-180 in the human brain” (European Journal of Nuclear Medicine and Molecular Imaging, 2016)
